# Reference: the supplement of paper PMC10849652
# Protein sequences, listed by entry. Tags and fused reporters are not part of them. Lines headed by an entry give the natural chain unless they say otherwise; changes in a name come on top.
# UniProt Q8N8Q8: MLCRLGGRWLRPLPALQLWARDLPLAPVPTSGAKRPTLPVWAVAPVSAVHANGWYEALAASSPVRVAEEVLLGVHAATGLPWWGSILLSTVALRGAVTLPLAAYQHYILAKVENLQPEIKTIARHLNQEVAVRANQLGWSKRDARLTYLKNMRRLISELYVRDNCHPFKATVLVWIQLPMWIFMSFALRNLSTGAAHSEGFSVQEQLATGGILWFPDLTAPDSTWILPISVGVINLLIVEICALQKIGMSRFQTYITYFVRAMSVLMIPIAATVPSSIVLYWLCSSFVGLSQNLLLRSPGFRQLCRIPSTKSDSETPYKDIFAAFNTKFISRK
# UniProt Q9Y678: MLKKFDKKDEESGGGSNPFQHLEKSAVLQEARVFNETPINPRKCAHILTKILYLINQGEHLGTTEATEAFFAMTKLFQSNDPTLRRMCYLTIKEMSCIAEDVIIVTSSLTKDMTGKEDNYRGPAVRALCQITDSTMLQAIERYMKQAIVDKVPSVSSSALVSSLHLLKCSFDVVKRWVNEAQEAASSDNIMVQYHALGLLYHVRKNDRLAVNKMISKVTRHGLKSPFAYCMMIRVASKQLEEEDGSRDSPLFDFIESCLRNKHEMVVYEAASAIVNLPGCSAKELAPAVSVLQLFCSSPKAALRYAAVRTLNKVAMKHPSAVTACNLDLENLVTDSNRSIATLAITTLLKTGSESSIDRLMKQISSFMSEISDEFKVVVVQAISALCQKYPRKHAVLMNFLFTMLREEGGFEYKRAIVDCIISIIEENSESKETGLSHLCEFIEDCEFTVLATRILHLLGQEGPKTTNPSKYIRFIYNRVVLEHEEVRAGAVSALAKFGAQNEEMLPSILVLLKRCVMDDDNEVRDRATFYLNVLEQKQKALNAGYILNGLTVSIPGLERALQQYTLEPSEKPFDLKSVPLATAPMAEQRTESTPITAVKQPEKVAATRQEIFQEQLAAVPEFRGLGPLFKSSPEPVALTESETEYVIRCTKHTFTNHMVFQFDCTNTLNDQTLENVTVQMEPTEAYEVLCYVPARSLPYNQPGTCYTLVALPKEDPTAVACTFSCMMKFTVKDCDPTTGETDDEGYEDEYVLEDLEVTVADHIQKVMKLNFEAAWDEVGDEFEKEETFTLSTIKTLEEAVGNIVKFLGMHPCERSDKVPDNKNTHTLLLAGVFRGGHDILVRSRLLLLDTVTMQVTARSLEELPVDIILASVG
# UniProt Q9UBF2: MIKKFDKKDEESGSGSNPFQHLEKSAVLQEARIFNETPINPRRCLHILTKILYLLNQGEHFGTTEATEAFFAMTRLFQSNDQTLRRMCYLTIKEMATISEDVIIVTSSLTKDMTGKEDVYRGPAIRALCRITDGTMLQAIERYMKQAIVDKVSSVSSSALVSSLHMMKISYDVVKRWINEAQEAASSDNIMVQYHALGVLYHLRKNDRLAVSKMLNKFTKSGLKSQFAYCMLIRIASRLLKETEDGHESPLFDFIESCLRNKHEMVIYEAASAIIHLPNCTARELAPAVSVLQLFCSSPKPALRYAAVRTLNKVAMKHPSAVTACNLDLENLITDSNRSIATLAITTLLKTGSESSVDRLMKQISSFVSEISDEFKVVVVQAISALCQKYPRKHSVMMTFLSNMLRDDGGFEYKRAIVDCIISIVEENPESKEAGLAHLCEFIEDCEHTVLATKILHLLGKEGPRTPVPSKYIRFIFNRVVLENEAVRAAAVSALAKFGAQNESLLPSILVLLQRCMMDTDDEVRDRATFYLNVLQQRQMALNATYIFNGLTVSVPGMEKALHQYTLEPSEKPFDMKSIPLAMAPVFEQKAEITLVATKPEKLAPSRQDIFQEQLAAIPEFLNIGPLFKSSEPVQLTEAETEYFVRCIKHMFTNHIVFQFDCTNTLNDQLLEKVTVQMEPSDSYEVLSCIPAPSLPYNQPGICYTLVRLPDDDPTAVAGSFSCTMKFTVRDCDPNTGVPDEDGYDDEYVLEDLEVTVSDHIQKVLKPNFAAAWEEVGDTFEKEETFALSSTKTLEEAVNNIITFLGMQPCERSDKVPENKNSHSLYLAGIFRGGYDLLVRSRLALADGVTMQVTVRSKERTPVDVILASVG
# UniProt P53618: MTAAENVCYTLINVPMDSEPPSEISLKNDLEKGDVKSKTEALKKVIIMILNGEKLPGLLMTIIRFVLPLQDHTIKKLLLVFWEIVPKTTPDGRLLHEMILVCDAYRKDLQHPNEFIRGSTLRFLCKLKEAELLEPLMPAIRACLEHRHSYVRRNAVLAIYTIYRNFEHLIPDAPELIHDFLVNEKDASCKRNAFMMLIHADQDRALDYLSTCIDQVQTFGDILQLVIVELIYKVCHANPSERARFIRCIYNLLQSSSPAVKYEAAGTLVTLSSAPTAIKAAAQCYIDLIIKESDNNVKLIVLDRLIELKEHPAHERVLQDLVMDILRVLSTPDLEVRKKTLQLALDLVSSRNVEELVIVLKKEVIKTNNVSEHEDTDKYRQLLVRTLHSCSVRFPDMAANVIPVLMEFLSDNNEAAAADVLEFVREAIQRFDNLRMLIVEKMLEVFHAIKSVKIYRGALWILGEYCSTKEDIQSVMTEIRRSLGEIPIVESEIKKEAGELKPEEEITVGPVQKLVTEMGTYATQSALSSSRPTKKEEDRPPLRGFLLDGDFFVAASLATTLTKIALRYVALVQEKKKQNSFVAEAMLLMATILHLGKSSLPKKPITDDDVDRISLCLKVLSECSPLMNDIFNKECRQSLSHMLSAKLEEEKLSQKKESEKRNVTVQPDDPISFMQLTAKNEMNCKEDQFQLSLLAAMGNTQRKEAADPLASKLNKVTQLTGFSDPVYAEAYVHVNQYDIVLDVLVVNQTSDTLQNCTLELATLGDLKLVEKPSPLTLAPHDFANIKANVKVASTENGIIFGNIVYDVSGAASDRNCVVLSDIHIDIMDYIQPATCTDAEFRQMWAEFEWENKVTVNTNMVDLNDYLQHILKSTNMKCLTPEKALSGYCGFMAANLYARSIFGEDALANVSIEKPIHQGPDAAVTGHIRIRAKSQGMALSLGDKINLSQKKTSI
# UniProt Q9H0A8, whole entry, looked up: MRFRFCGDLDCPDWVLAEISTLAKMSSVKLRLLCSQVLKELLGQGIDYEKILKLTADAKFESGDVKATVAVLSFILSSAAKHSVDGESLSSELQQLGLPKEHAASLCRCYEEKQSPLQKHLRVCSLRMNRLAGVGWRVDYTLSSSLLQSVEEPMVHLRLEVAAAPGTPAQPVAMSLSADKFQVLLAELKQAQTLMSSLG
# UniProt P21964: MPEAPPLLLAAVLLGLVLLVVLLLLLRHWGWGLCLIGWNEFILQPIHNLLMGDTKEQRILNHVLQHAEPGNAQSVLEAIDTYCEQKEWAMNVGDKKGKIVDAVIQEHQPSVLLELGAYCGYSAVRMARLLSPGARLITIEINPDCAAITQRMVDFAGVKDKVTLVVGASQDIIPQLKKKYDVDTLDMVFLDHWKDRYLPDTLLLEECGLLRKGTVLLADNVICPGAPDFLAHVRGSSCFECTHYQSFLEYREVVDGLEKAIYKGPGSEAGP
# UniProt P02511: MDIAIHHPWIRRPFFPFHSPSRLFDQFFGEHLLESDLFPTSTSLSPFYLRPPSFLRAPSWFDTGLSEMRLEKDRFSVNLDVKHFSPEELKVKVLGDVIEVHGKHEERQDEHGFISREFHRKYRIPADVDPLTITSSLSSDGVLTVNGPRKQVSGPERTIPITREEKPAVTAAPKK
# UniProt Q9P021, whole entry, looked up: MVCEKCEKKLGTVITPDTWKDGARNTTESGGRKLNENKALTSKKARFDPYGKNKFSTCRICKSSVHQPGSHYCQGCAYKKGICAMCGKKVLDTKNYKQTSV
# UniProt O75575: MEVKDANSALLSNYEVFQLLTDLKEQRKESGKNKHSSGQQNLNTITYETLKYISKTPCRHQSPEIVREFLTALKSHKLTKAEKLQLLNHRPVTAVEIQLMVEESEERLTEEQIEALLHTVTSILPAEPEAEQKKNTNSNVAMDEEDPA
# UniProt P09669, whole entry, looked up: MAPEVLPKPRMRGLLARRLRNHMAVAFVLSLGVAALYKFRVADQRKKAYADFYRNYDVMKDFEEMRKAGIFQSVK
# UniProt O75390: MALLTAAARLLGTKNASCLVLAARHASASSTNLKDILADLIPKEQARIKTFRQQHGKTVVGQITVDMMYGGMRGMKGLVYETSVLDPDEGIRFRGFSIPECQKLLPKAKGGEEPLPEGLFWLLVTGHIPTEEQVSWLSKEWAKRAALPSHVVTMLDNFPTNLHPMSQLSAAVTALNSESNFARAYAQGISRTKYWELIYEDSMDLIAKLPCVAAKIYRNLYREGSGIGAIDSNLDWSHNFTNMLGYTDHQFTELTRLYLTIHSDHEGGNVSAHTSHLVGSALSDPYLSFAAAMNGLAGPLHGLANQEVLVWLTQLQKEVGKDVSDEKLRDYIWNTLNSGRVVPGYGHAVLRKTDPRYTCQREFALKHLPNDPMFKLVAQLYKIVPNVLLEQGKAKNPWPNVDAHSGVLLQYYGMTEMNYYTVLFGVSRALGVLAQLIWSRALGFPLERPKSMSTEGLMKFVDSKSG
# UniProt Q99807: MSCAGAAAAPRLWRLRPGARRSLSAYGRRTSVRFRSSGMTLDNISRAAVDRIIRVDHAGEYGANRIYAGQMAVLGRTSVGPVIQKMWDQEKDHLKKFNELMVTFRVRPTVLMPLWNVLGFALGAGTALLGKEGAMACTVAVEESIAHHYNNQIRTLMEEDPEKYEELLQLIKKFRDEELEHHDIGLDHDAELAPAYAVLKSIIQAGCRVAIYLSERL
# UniProt Q96I36: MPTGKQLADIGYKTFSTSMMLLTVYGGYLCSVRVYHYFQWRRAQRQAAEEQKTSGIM
# UniProt P12109: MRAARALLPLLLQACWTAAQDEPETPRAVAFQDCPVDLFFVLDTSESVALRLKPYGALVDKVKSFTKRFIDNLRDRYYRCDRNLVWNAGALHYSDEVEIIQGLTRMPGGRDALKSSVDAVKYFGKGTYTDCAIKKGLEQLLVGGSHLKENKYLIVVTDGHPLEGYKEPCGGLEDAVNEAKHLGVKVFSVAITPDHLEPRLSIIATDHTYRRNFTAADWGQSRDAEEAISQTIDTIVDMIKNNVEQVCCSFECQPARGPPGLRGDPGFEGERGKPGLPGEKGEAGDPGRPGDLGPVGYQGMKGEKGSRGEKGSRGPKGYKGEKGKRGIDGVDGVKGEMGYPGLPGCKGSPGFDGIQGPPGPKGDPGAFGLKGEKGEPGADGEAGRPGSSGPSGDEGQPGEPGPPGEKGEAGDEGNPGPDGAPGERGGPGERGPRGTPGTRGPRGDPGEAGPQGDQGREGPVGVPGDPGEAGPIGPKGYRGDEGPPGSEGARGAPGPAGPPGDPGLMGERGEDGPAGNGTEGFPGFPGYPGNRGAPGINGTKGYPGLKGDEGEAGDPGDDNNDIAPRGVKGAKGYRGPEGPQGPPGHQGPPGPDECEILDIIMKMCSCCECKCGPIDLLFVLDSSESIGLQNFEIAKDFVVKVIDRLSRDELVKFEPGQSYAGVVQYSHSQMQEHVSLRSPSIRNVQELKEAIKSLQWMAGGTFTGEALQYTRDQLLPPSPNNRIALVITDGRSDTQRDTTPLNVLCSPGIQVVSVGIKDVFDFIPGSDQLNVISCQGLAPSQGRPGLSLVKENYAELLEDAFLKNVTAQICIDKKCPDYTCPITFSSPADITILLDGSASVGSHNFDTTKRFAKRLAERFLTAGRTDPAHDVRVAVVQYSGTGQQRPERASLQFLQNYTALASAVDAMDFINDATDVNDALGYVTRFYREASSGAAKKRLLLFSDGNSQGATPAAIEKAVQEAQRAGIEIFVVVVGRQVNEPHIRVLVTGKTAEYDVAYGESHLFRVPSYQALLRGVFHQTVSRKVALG
# UniProt O75208: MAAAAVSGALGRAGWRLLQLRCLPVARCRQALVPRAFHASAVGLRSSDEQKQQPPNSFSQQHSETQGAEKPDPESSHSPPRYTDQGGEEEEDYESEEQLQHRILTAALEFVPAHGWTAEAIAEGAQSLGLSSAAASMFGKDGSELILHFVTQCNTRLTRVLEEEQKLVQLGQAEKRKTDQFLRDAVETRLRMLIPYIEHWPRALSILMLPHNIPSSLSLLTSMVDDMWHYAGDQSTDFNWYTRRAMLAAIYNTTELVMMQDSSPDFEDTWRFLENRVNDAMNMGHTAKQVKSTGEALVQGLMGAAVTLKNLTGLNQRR
# The list shows a part of the results.
# Columns and labels:
# Test in all cases: log2 fold change, soluble protein after heating vs DMSO (PISA); higher = thermal stabilisation; K562 cells, 10 uM, 30 min; active = over 0.2 and 3.5 SD of the protein, either way, in both replicates (recomputed)
# [1] = compound: CS(=O)(=O)c1ccc(-c2cnc(N)c(C(=O)Nc3ccccc3)n2)cc1
# How it was run: (§1)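 Quantification of soluble protein used TMTpro 16plex LC-MS/MS, with channel sums equalised. Samples were the supernatant after 21,000xg for 90 min of pooled aliquots from K562 cells (2×10^6 cells/mL) treated with 10 μM compound for 30 min, heated for 3 min over 48°C-58°C, and extracted in PBS with 0.5% NP-40 at 4°C. Values, from duplicates, describe thermal stability against control samples on a log2 fold-change scale.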
# crizotinib = compound: C[C@@H](Oc1cc(-c2cnn(C3CCNCC3)c2)cnc1N)c1c(Cl)ccc(F)c1Cl [crizotinib]
# How it was run: as §1
# [2] = compound: C[C@@H]1COCCN1C2=NC(=NC(=C2)C3(CC3)S(=O)(=O)C)C4=C5C=CNC5=CC=C4
# How it was run: as §1
# [3] = compound: C[C@H](C1=CC=C(C=C1)C(=O)NC2=C3C=CNC3=NC=C2)N
# How it was run: as §1
# duvelisib = compound: C[C@H](Nc1ncnc2nc[nH]c12)c1cc2cccc(Cl)c2c(=O)n1-c1ccccc1 [duvelisib]
# How it was run: as §1
# gandotinib = compound: Cc1cc(Nc2cc(CN3CCOCC3)c3nc(C)c(Cc4ccc(Cl)cc4F)n3n2)n[nH]1 [gandotinib]
# How it was run: as §1
# tozasertib = compound: Cc1cc(Nc2cc(N3CCN(C)CC3)nc(Sc3ccc(NC(=O)C4CC4)cc3)n2)n[nH]1 [tozasertib]
# How it was run: as §1
# [4] = compound: Cc1cc(SCc2sc(-c3ccc(C(F)(F)F)cc3)nc2C)ccc1OCC(=O)O
# How it was run: as §1
# doramapimod = compound: Cc1ccc(-n2nc(C(C)(C)C)cc2NC(=O)Nc2ccc(OCCN3CCOCC3)c3ccccc23)cc1 [doramapimod]
# How it was run: as §1
# ispinesib = compound: Cc1ccc(C(=O)N(CCCN)[C@@H](c2nc3cc(Cl)ccc3c(=O)n2Cc2ccccc2)C(C)C)cc1 [ispinesib]
# How it was run: as §1
# bafetinib = compound: Cc1ccc(NC(=O)c2ccc(CN3CC[C@H](N(C)C)C3)c(C(F)(F)F)c2)cc1Nc1nccc(-c2cncnc2)n1 [bafetinib]
# How it was run: as §1
# [5] = compound: Cc1cccc(CC(=O)N2CCc3c2ccc(-c2cn(C)c4ncnc(N)c24)c3F)n1
# How it was run: as §1
# nilotinib = compound: Cc1cn(-c2cc(NC(=O)c3ccc(C)c(Nc4nccc(-c5cccnc5)n4)c3)cc(C(F)(F)F)c2)cn1 [nilotinib]
# How it was run: as §1
# [6] = compound: Cc1nc(Nc2n[nH]c3c2CN(C(=O)N[C@H](CN(C)C)c2ccccc2)C3(C)C)c2sccc2n1
# How it was run: as §1
# dasatinib = compound: Cc1nc(Nc2ncc(C(=O)Nc3c(C)cccc3Cl)s2)cc(N2CCN(CCO)CC2)n1 [dasatinib]
# How it was run: as §1
# [7] = compound: Cc1ncc(-c2ccnc(Nc3ccc(S(C)(=O)=O)cc3)n2)n1C(C)C
# How it was run: as §1
# [8] = compound: Cn1cc(-c2ccc3c(c2)CCN3C(=O)Cc2cccc(C(F)(F)F)c2)c2c(N)ncnc21
# How it was run: as §1
# [9] = compound: Cn1cc(-c2ccc3nnc(C(F)(F)c4ccc5ncccc5c4)n3n2)cn1
# How it was run: as §1
# tipifarnib = compound: Cn1cncc1[C@@](N)(c1ccc(Cl)cc1)c1ccc2c(c1)c(-c1cccc(Cl)c1)cc(=O)n2C [tipifarnib]
# How it was run: as §1
# mubritinib = compound: FC(F)(F)c1ccc(/C=C/c2nc(COc3ccc(CCCCn4ccnn4)cc3)co2)cc1 [mubritinib]
# How it was run: as §1
Target,log2 fold change [1],log2 fold change (crizotinib),log2 fold change [2],log2 fold change [3],log2 fold change (duvelisib),log2 fold change (gandotinib),log2 fold change (tozasertib),log2 fold change [4],log2 fold change (doramapimod),log2 fold change (ispinesib),log2 fold change (bafetinib),log2 fold change [5],log2 fold change (nilotinib),log2 fold change [6],log2 fold change (dasatinib),log2 fold change [7],log2 fold change [8],log2 fold change [9],log2 fold change (tipifarnib),log2 fold change (mubritinib)
COX18 (UniProt Q8N8Q8),inactive: 0.015,inactive: -0.06,inactive: 0.037,inactive: -0.016,inactive: 0.05,inactive: -0.016,inactive: -0.01,inactive: -0.008,inactive: -0.05,inactive: -0.048,inactive: -0.089,inactive: -0.053,inactive: -0.025,inactive: 0.005,inactive: -0.011,inactive: -0.063,inactive: 0.082,inactive: 0.028,inactive: 0.056,inactive: 0.055
COQ10B (UniProt Q9H8M1),inactive: -0.057,inactive: 0.014,inactive: 0.423,inactive: 0.328,inactive: 0.087,–,–,inactive: -0.051,inactive: 0.141,inactive: -0.177,inactive: -0.299,–,–,–,inactive: 0.121,–,inactive: -0.139,inactive: -0.048,–,–
COPG1 (UniProt Q9Y678),inactive: -0.003,inactive: 0.039,inactive: 0.043,inactive: -0.004,inactive: -0.019,inactive: -0.047,inactive: 0.009,inactive: 0.025,inactive: -0.034,inactive: 0.122,inactive: 0.015,inactive: 0.023,inactive: -0.009,inactive: -0.002,inactive: -0.02,inactive: -0.009,inactive: -0.002,inactive: -0.029,inactive: -0.011,inactive: 0.024
COPG2 (UniProt Q9UBF2),inactive: -0.002,inactive: 0.043,inactive: 0.035,inactive: -0.024,inactive: 0.011,inactive: -0.045,inactive: 0,inactive: 0.026,inactive: -0.021,inactive: 0.126,inactive: 0.008,inactive: 0.025,inactive: -0.034,inactive: 0,inactive: -0.059,inactive: -0.019,inactive: 0,inactive: -0.005,inactive: 0.005,inactive: 0.028
COPB1 (UniProt P53618),inactive: -0.016,inactive: 0.027,inactive: 0.048,inactive: -0.046,inactive: 0.03,inactive: -0.038,inactive: 0.011,inactive: 0.03,inactive: -0.022,inactive: 0.114,inactive: 0.009,inactive: 0.032,inactive: -0.024,inactive: -0.016,inactive: -0.052,inactive: -0.01,inactive: 0.003,inactive: -0.019,inactive: -0.056,inactive: 0.028
COMMD4 (UniProt Q9H0A8),inactive: 0.089,inactive: 0.03,inactive: -0.114,inactive: 0.104,inactive: 0.029,inactive: -0.148,inactive: 0.135,inactive: 0.03,inactive: -0.078,inactive: -0.13,inactive: -0.054,inactive: 0.114,inactive: -0.078,inactive: -0.099,inactive: -0.12,inactive: 0.02,inactive: -0.056,inactive: -0.077,–,inactive: 0.031
COMT (UniProt P21964),inactive: 0.04,active: 0.352,inactive: 0.053,inactive: -0.081,–,inactive: 0.031,–,inactive: 0.02,inactive: 0,active: 0.235,inactive: 0.011,inactive: -0.019,inactive: 0.01,inactive: 0.119,inactive: 0.03,inactive: 0.009,inactive: 0.073,inactive: 0.031,inactive: 0.002,inactive: 0.06
CRYAB (UniProt P02511),inactive: 0.12,inactive: -0.041,inactive: 0.067,inactive: 0.408,inactive: 0.046,–,–,inactive: 0.071,inactive: 0.081,–,–,–,–,–,inactive: -0.173,–,inactive: -0.152,–,–,–
CRIPT (UniProt Q9P021),inactive: -0.008,inactive: 0.071,inactive: -0.127,inactive: -0.039,inactive: 0.097,inactive: 0,inactive: 0.025,inactive: -0.056,inactive: 0.011,inactive: 0.025,inactive: -0.022,inactive: 0.046,inactive: 0.011,inactive: 0.052,inactive: -0.057,inactive: -0.032,inactive: 0.061,inactive: -0.042,inactive: 0.047,inactive: -0.015
CRCP (UniProt O75575),inactive: -0.085,inactive: -0.073,inactive: 0.129,inactive: -0.069,inactive: -0.041,inactive: -0.023,inactive: 0.018,inactive: -0.009,inactive: 0.091,–,inactive: 0.007,inactive: 0.072,inactive: -0.093,inactive: -0.164,inactive: 0.063,inactive: -0.061,inactive: -0.082,–,inactive: 0.026,inactive: 0.056
COX6C (UniProt P09669),inactive: -0.039,inactive: 0.003,inactive: 0.08,inactive: -0.072,inactive: 0.043,inactive: 0.014,inactive: -0.007,inactive: -0.014,inactive: -0.035,inactive: 0.04,inactive: 0.02,inactive: -0.02,inactive: 0.006,inactive: 0.045,inactive: 0.07,inactive: 0.02,inactive: 0.034,inactive: 0.07,inactive: 0.008,inactive: 0.017
COPB2 (UniProt P35606),inactive: 0.012,inactive: 0.039,inactive: -0.005,inactive: -0.026,inactive: 0.012,inactive: -0.034,inactive: -0.002,inactive: 0.005,inactive: -0.049,inactive: 0.1,inactive: -0.027,inactive: 0.012,inactive: -0.038,inactive: -0.021,inactive: -0.037,inactive: -0.001,inactive: 0.017,inactive: -0.019,inactive: -0.031,inactive: 0.025
CS (UniProt O75390),inactive: 0.044,inactive: -0.122,inactive: 0.072,inactive: -0.034,–,inactive: -0.037,–,inactive: 0.061,inactive: 0.017,inactive: -0.157,inactive: 0.013,inactive: -0.061,inactive: 0.011,inactive: -0.051,inactive: -0.131,inactive: -0.097,inactive: 0.075,inactive: 0.083,inactive: -0.033,inactive: 0.015
COQ7 (UniProt Q99807),inactive: 0.113,inactive: -0.163,inactive: 0.062,inactive: 0.007,–,active: -0.359,–,inactive: 0.019,inactive: 0.009,inactive: -0.181,inactive: -0.168,inactive: -0.062,inactive: 0.006,inactive: -0.103,inactive: -0.006,inactive: -0.033,inactive: 0.055,inactive: 0.095,inactive: 0.029,inactive: 0.055
COX14 (UniProt Q96I36),inactive: -0.055,inactive: -0.006,inactive: 0.119,inactive: -0.118,–,inactive: -0.291,–,–,inactive: 0.022,–,inactive: 0.064,inactive: -0.177,inactive: 0.081,inactive: -0.057,–,inactive: -0.106,inactive: -0.064,–,inactive: -0.043,–
COL6A1 (UniProt P12109),inactive: -0.051,inactive: 0.085,–,inactive: 0.103,inactive: -0.141,inactive: 0.124,inactive: 0.066,inactive: -0.085,inactive: 0.047,inactive: -0.098,inactive: -0.023,inactive: -0.249,inactive: -0.212,inactive: -0.423,inactive: 0.029,inactive: 0.178,inactive: 0.151,inactive: -0.166,inactive: 0.172,inactive: -0.213
COQ9 (UniProt O75208),inactive: 0.02,inactive: -0.067,inactive: 0.03,inactive: -0.064,–,inactive: -0.029,–,inactive: 0.032,inactive: -0.079,inactive: -0.055,inactive: -0.124,inactive: 0.074,inactive: -0.06,inactive: -0.035,inactive: -0.147,inactive: 0.001,inactive: 0.052,inactive: 0.028,inactive: -0.068,inactive: -0.04
CPSF6 isoform 2 (UniProt Q16630),inactive: -0.014,inactive: -0.025,inactive: 0.075,active: -0.292,–,inactive: -0.034,–,inactive: -0.012,inactive: 0.004,inactive: 0.11,inactive: 0.079,inactive: -0.136,inactive: 0.06,active: -1.43,inactive: 0.009,inactive: 0.014,inactive: 0.039,inactive: -0.008,inactive: 0.031,inactive: 0.006

# Some of the entries above, reformatted.
Target	log2 fold change [1]	log2 fold change (crizotinib)	log2 fold change [2]	log2 fold change [3]	log2 fold change (duvelisib)	log2 fold change (gandotinib)	log2 fold change (tozasertib)	log2 fold change [4]	log2 fold change (doramapimod)	log2 fold change (ispinesib)	log2 fold change (bafetinib)	log2 fold change [5]	log2 fold change (nilotinib)	log2 fold change [6]	log2 fold change (dasatinib)	log2 fold change [7]	log2 fold change [8]	log2 fold change [9]	log2 fold change (tipifarnib)	log2 fold change (mubritinib)
COPG1 (UniProt Q9Y678)	inactive: -0.003	inactive: 0.039	inactive: 0.043	inactive: -0.004	inactive: -0.019	inactive: -0.047	inactive: 0.009	inactive: 0.025	inactive: -0.034	inactive: 0.122	inactive: 0.015	inactive: 0.023	inactive: -0.009	inactive: -0.002	inactive: -0.02	inactive: -0.009	inactive: -0.002	inactive: -0.029	inactive: -0.011	inactive: 0.024
CPSF6 isoform 2 (UniProt Q16630)	inactive: -0.014	inactive: -0.025	inactive: 0.075	active: -0.292	–	inactive: -0.034	–	inactive: -0.012	inactive: 0.004	inactive: 0.11	inactive: 0.079	inactive: -0.136	inactive: 0.06	active: -1.43	inactive: 0.009	inactive: 0.014	inactive: 0.039	inactive: -0.008	inactive: 0.031	inactive: 0.006
